About 18,000 (4.4%) of roughly 410,000 compounds were called active. This list was built around the results that the source calls inconclusive (neither active nor inactive); the mix of calls is not that of the screen. Cut-off read from the data, not from the text of the source: active = activity change below about -60%; inconclusive = no clear call, values can overlap the other calls; inactive = above about -39%.
Assay: qHTS Assay for inhibitors of the human cytomegalovirus (HCMV)
Details: HFF cells, HCMV-luciferase reporter, 72 h; at 57.5 µM; active compounds read low
Method in brief: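 HFF cells seeded 16 h at 37C, treated with compounds, infected with luciferase-reporter HCMV at MOI 1 PFU/cell; luciferase read at 72 h post infection, normalized to buffer-only and Salinomycin controls.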
% is set by controls: 0 for no effect and ±100 for the full control effect.

Compound | activity change, negative = inhibition
Cc1nn(C)c(C)c1S(=O)(=O)N1CCC(C(=O)NCCC2=CCCCC2)CC1 | inconclusive: -49.2%
Cc1cc(C)c(C)c(Cn2c(CO)nc3ccccc32)c1C | inconclusive: -46.8%
COc1cc(-c2nnc(SCC(=O)Nc3ccc(F)c(Cl)c3)o2)cc(OC)c1OC | inactive: 11.5%
OCc1ccc(-c2nn(Cc3ccccc3)c3ccccc23)o1 | inconclusive: -51.8%
O=C1/C(=C/c2ccc(O)cc2)SC(=S)N1Cc1cccnc1 | inconclusive: -46.2%
COc1ccc(CN(C)CC(=O)NC(=O)NCc2ccccc2)c(OC)c1 | inconclusive: -45.7%
O=c1c2c3c(sc2ncn1/N=C/c1ccc(Br)o1)CCCC3 | inconclusive: -49.8%
O=C1c2ccccc2C2=Nc3ccccc3SC(c3ccc(Cl)cc3)C12 (centres undefined) | inconclusive: -42.4%
COc1cnc(-c2ccccn2)nc1Oc1ccc(C(C)(C)C)cc1 | active: -82.7%
O=C1N=C(N2CCCC2)S/C1=C\C=C\c1ccccc1 | inconclusive: -50.6%
O=C(CSc1ncn[nH]1)Nc1ccc(Br)cc1Br | inconclusive: -40.8%
COc1ccccc1NC(=S)N1CCC(NC(=O)NC23CC4CC(CC(C4)C2)C3)CC1 | inconclusive: -56.3%
O=C(CSc1ccccn1)Nc1ccc(NC(=O)CSc2ccccn2)cc1 | inconclusive: -55.6%
c1ccc(OC2CCCCC2N2CCOCC2)cc1 (centres undefined) | inactive: -34.3%
CSc1ccccc1NP1(=O)OCC(C)([N+](=O)[O-])CO1 (centres undefined) | inconclusive: -42.3%
O=C(CSc1nnc(Cc2ccccc2)o1)Nc1ccc2c(c1)OCO2 | inactive: 46.2%
Cc1cccc(-n2c(/C=C\c3cccc(Br)c3)nc3ccccc3c2=O)c1 | inactive: -32%
COc1ccc(C(=O)NCC2OCCc3ccccc32)cc1OC (centres undefined) | inconclusive: -53.2%
Cc1c(CN2CCC(C(=O)Nc3cccc(-c4cccc(Cl)c4)c3)CC2)cnn1C | inconclusive: -52.2%
Cc1nn(-c2ccccc2)c(C)c1C(=O)NCc1ccc(F)cc1 | inconclusive: -45.5%
COc1ccc(-c2oc3ncnc(NCCCN(C)C)c3c2-c2ccc(OC)cc2)cc1 | active: -83.5%
CCN1C(=O)c2cccc3c(NC(=O)c4cccc(N5C(=O)CCC5=O)c4)ccc1c23 | inactive: 39.9%
O=C(c1ccco1)N1CCN(C(=O)c2cc3sccc3n2Cc2ccccc2)CC1 | active: -70.9%

Compound | activity change, negative = inhibition
CCc1cccc(CC)c1-n1c(SCC(=O)N2CCc3ccccc3C2)nnc1-c1cccnc1 | inconclusive: -54.3%
CCn1nnnc1SCC(=O)c1cc(Cl)ccc1OC | inconclusive: -51.5%
Cc1nc2ccccc2n1CC(=O)NC1CCCCCC1 | active: -62.4%
CCCCNC(=O)C1(C)CCCCN1C(=O)c1ccc(C)c(F)c1 (centres undefined) | inconclusive: -40%
COc1ccccc1CNc1ncnc2c1cnn2-c1ccccc1 | inactive: 39.3%
COc1cc(Br)c(/C=C(\C#N)c2nc3ccccc3[nH]2)cc1OC | inconclusive: -45.8%
O=C(COc1ccc(Br)cc1)Nc1ccc2oc(=O)ccc2c1 | inconclusive: -45.6%
COc1ccccc1CNC(=O)CNC(=O)c1ccc(Br)o1 | inconclusive: -57.4%
CC(NC(=O)c1cc(Sc2ccc(F)cc2F)nc2ccccc12)c1ccccc1 (centres undefined) | inconclusive: -58.5%
O=C(N/N=C/c1cc([N+](=O)[O-])ccc1O)c1cc(-c2ccccc2)nc2ccccc12 | active: -99.7%
CCc1nn(CC(=O)N2CCCCC2)c(=O)c2cc3sccc3n12 | inconclusive: -50.8%
Cc1nn(-c2ccccc2)c(Cl)c1/C=C(\C#N)C(=O)NC(C)C | inconclusive: -55.4%
CC(C)C(C)NC(=O)COC(=O)c1cccc(C(=O)OCC(=O)NC(C)C(C)C)n1 (centres undefined) | inactive: -9.7%
CCN(CC)c1ccc(NS(=O)(=O)c2ccc(-c3ccc(=O)[nH]n3)o2)c(C)c1 | inconclusive: -40.5%
CNC(=O)OCc1nc(SSC(C)(C)C)n(C)c1COC(=O)NC | active: -75.9%
CC1(Cc2ccccc2OC(F)(F)F)C(=O)Nc2ccc(OC(F)(F)F)cc21 (centres undefined) | active: -76.1%
COc1ccc(NC(=O)C2Cc3c(-c4cccc(F)c4)ccnc3O2)cc1OC (centres undefined) | active: -75.9%
CCN(CC)CCNC(=O)c1ccc(NC(=O)Nc2cccc3ccccc23)cc1 | inconclusive: -56.3%
CC1=Nc2ccc3ccccc3c2C1(C)C | inconclusive: -57.3%
O=C(NCc1ccc(F)c(F)c1)C1Cc2c(-c3ccc4c(c3)OCO4)ccnc2O1 (centres undefined) | inconclusive: -47.8%
S=C1SCN(Cc2ccccn2)CN1Cc1ccco1 | inconclusive: -56.1%
CCOc1ccc(CC(=O)Nc2c(C(=O)c3ccc(C)cc3)oc3ccccc23)cc1OCC | active: -62.8%
CCCCNC(=O)CCn1c(=O)c2ccccc2n(Cc2ccccc2C#N)c1=O | inactive: 2.84%

Compound | activity change, negative = inhibition
CN(Cc1ccc(Cl)c(Cl)c1)C(=O)c1ccccc1SCC(=O)N1CCCC1 | active: -98.6%
CCCC(=O)Nc1nnc(-c2ccc(Cl)s2)o1 | inactive: 6.53%
Cn1sccc1=O | inconclusive: -48.7%
Cc1ccc(C(=O)COC(=O)C(CC(C)C)NC(=O)C2CCC(C)CC2)cc1 (centres undefined) | inactive: 10.1%
Cc1ccc2nc(NC(=O)C3CCCN3C(=O)OC(C)(C)C)sc2c1 (centres undefined) | inconclusive: -57.7%
Cc1nc(N2CCN(c3ccccn3)CC2)c2c(C)c(C(=O)Nc3ccc(F)cc3Cl)sc2n1 | inconclusive: -51.1%
COc1ccc(NC(=O)C2CCCN(c3ncnc4onc(-c5ccc(F)cc5)c34)C2)cc1 (centres undefined) | inconclusive: -41.3%
Cc1c(C(=O)NCc2ccccc2F)oc2ccccc12 | inconclusive: -50.5%
O=C(Nc1c(-c2ccc3c(c2)OCO3)[nH][nH]c1=O)c1ccccc1 | inconclusive: -42.9%
C[C@@H](OC(=O)N(C)Cc1ccccc1)[C@H]1O[C@]2(C)CCCC[C@H]1O2 | inactive: -37.5%
Cc1c(C(=O)N2CCC3(CC2)OCCO3)sc2ncnc(N3CCc4ccccc4C3)c12 | inconclusive: -47.8%
CCC(C)(CN(C)C)OC(=O)c1ccccc1 (centres undefined) | inconclusive: -40.7%
O=C(CC1Sc2ccccc2NC1=O)NNc1cccc(Cl)c1Cl (centres undefined) | inconclusive: -44.6%
S=C1SC2(CCCCCC2)NC2=C1CCCCC2 | inconclusive: -46.8%
COc1ccc(Br)cc1CN(C)CC(=O)Nc1cc(Cl)ccc1Cl | inconclusive: -41.6%
CCOc1ccc(-c2nc(CSCC(=O)N3CCN(c4cccc(OC)c4)CC3)c(C)o2)cc1 | active: -77.5%
Cc1ccccc1CNC(=O)Cn1ncn2nc(-c3cccs3)cc2c1=O | inactive: 14.9%
O=C(O)c1ccccc1-c1csc(-c2ccccc2)n1 | inactive: 5.63%
CCNS(=O)(=O)c1ccc(CCC(=O)NCc2ccc(C)cc2)cc1 | inactive: -27.1%
CCC/S(CC1CC1(Cl)Cl)=N\S(=O)(=O)c1ccc(C)cc1 (centres undefined) | inactive: -9.3%
COc1cc(NC(=O)CCc2nnc3ccc(N4CCOCC4)nn23)cc(OC)c1OC | inactive: -10.8%
Cc1ccc(-n2c(SCC(=O)NCC3CCCO3)nc3ccccc3c2=O)cc1C (centres undefined) | inconclusive: -44.6%
Cc1nc([N+](=O)[O-])c(C(=O)OCc2ccc(C#N)cc2)n1C | inconclusive: -47.4%

Compound | activity change, negative = inhibition
COc1ccc(/C=N\NC(=O)c2ccccc2F)cc1COc1ccc(F)cc1F | active: -80.2%
O=C(Nc1ccc(Cl)cc1)Nc1nnc(/C=C/c2ccccc2)s1 | inconclusive: -54.2%
C=CCC(C(=O)NC(C)c1ccccc1)C(=O)NC(C)c1ccccc1 (centres undefined) | inactive: -3.05%
CC(=O)Nc1cccc(-c2ccnc3c2CC(C)(C(=O)NCc2cccs2)O3)c1 (centres undefined) | inconclusive: -44%
Cc1cc(=O)[nH]c(SCC(=O)/C=C2\N(C)c3ccccc3C2(C)C)n1 | inconclusive: -53.3%
O=C(CC1CCCC1)Nc1ccc(Br)cc1 | inconclusive: -40.9%
CCCSc1nnc(NC(=O)CSc2sc3c(O)cc(=O)[nH]c3c2C#N)s1 | inconclusive: -42.1%
O=C(Nc1cnn(Cc2c(Cl)cccc2Cl)c1)C(c1ccccc1)c1ccccc1 | inconclusive: -45.1%
CC1CCc2sc(C(=O)OCC(=O)NC(C)C)cc2C1 (centres undefined) | inconclusive: -45.5%
COC(=O)c1ccc(NC(=O)c2cc(S(=O)(=O)N3CCc4ccccc43)cn2C)cc1 | inactive: -14.6%
COC(=O)C1=CN(c2cccc(C)c2)C=C(C(=O)OC)C1c1cc(OC)c(O)c([N+](=O)[O-])c1 | inactive: 118%
CCCc1nc(C)c2c(=O)[nH]c(-c3cc(S(=O)(=O)N4CCN(CC)CC4)ccc3OCC)nn12 | inactive: 5.86%
O=C1C=C(C#Cc2ccccc2)C[C@@H](c2ccc(F)cc2)C1 | inactive: 8.22%
CCc1nnc(N2CCN(c3ncnc4c3oc3ccccc34)CC2)s1 | inconclusive: -48.6%
C=COCCn1c(C)c(C(C)=O)c2cc(O)ccc21 | inconclusive: -58.9%
Nc1cc(Cc2ccccc2)ccc1O | inconclusive: -50.1%
CCOc1ccc(C2C(C#N)=C(N)N(c3sc4c(c3C#N)CCCC4)C3=C2C(=O)CCC3)cc1 (centres undefined) | inactive: -19.3%
CN(C)c1nc(N)nc(/C(C#N)=C/C2CC3C=CC2C3)n1 (centres undefined) | inactive: 47.5%
COc1ccc(NC(=O)C2CCC(CNS(=O)(=O)c3cccs3)CC2)cc1 (centres undefined) | inconclusive: -51.5%
COc1cc(OC)c(NC(=O)NC(C)c2c(-n3cccc3)sc(C)c2C)cc1Cl (centres undefined) | inconclusive: -53.1%

Reformatted with tabs: 2 of the compounds above
Compound	activity change, negative = inhibition
O=C(Nc1ccc(Cl)cc1)Nc1nnc(/C=C/c2ccccc2)s1	inconclusive: -54.2%
C=CCC(C(=O)NC(C)c1ccccc1)C(=O)NC(C)c1ccccc1 (centres undefined)	inactive: -3.05%

In another format: results already given

| Compound | activity change, negative = inhibition |
| --- | --- |
| COc1ccc(/C=N\NC(=O)c2ccccc2F)cc1COc1ccc(F)cc1F | active: -80.2% |
| O=C(Nc1cnn(Cc2c(Cl)cccc2Cl)c1)C(c1ccccc1)c1ccccc1 | inconclusive: -45.1% |
| C=COCCn1c(C)c(C(C)=O)c2cc(O)ccc21 | inconclusive: -58.9% |
